Test results: PubChem BioAssay AID1487 (National Center for Advancing Translational Sciences (NCATS), 2009)
The whole screen tested about 200,000 compounds, of which about 25 (0.01%) were called active. The shares of active, inactive and inconclusive entries below differ from those in the screen. Calls come from the whole dose curve; as a rule, active = well fitted inhibition curve with a large enough effect in the signal ratio, with a control signal flat (not every such curve was filed as active); inconclusive = small, poorly fitted or top-dose-only effect, or effect the other way, or a change in a side signal; inactive = flat fitted curve, though single readings scatter; the % refers to the signal ratio. A potency beside an inconclusive call is a rough fit, not a confirmed value.

Assay: qHTS Assay for Modulators of Lamin A Splicing
Conditions: HeLa LMNA splicing GFP/RFP minigene ratio, 48 h; ratio change, negative = inhibition: at 46.1 µM (top of the series) unless noted
Outline: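 S3 HeLa cells stably expressing lamin A-EGFP splicing minigene plus DsRed2, 600 cells/well, 48 h compound exposure at 37C. Laser-scanning cytometry; analysed as GFP (500-530 nm)/RFP (575-640 nm) total intensity ratio; 0.5% DMSO vehicle.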
% is set by controls: 0 for no effect and ±100 for the full control effect; potency is the fitted concentration of half-maximal effect.

| SMILES | ratio change, negative = inhibition | Potency |
| --- | --- | --- |
| Cc1[nH]c2ccccc2c1/C=N\NC(=O)CNc1ccc2c(c1)OCO2 | inactive |  |
| Cc1cc2c3c(c1)C(C)(c1ccccc1)CC(C)(C)N3C(=O)C21C(C#N)=C(N)OC2=C1C(=O)CC(C)(C)C2 (stereo not given) | inconclusive: -22.3% |  |
| Cc1nc(OCC(=O)c2ccc(Cl)cc2)c(C#N)c2c1COC(C)(C)C2 | inactive |  |
| Cc1sc2cc3c(c(C(=O)c4ccccc4)[n+]2c1C)-c1cccc2cccc-3c12 |  | inconclusive: 7.94 µM [fluorescent, partial curve] |
| Cc1cc(C)n2nc(C(=O)Nc3ccc4c(c3)CCC4)nc2n1 | inconclusive: -16.1% [at 46 µM] |  |
| Cc1cc(NC(=O)/C=C/C(=O)N(CC(=O)NC2CCCC2)c2cccc3ccccc23)no1 |  | inconclusive: 35.5 µM [cytotoxic, single point] |
| O=Cc1ccc(O)c(O)c1 | inconclusive: -33.8% [at 46 µM] |  |
| COc1ccc(NC(=O)C2=C(C)Nc3nc(CCCO)nn3C2c2ccc(O)cc2)cc1 (stereo not given) | inactive |  |
| CC(C)N(Cc1ccccc1)c1ncnc2c1nnn2C | inactive |  |
| Cc1ccccc1N1C(=O)CN(Cc2sccc2C)C1=S |  | inconclusive: 35.5 µM [fluorescent, single point] |
| O=C1c2ccccc2S(=O)(=O)N1Cc1nnc(-c2ccccc2Br)o1 | inactive |  |
| CC(C)(C#N)N([O-])C=C[N+](=O)C(C)(C)C#N | inconclusive: 9.05% |  |
| N=C1S/C(=C\c2ccccc2F)C(=O)N1c1ccc(F)cc1 | inactive |  |
| CCOC(=O)c1ccc(N2CCN(c3cccc(Cl)c3)CC2)c(NC(=O)Nc2ccc(OC)cc2OC)c1 | inconclusive: -18.4% [at 46 µM] |  |
| O=C(O)c1cccc(S(=O)(=O)N2CCCC2)c1 | inactive |  |
| O=C(CN1CCOCC1)Nc1cc(Cl)ccc1Cl | inconclusive: 10.9% |  |
| CCCCCCCC1=Cc2ccc(F)cc2C(C(C(=O)OC)C(=O)OC)N1C(=O)OC (stereo not given) |  | inconclusive: 0.0013 µM |
| O=C(Cn1c(-c2cccs2)cc2cc(Cl)ccc21)N1CCN(c2ccccc2)CC1 | inactive |  |
| Cc1ccc(-n2c(C)cc(C(=O)OCC(=O)N(C)C3CCS(=O)(=O)C3)c2C)cc1 (stereo not given) | inactive |  |
| Cc1nc(-c2ccc(Cl)cc2)sc1CCNC(=O)c1ccc(C(F)(F)F)cc1 | inconclusive: 25.1% [at 46 µM] |  |
| OC(CNCCC1C=Nc2ccccc21)Cn1c2ccc(Cl)cc2c2cc(Cl)ccc21 (stereo not given) |  | inconclusive: 25.1 µM [cytotoxic, single point] |
| O=C(/C=C/c1ccccc1Cl)c1ccccc(=O)c1O | inconclusive: -60.1% |  |
| COc1ccccc1C(=O)OCc1cc(=O)n2nc(C3CC3)sc2n1 | inactive |  |
| CCn1c(SCCC(=O)O)nnc1-c1cccnc1 | inactive |  |
| O=C1/C(=C/c2cccnc2)CCC/C1=C\c1cccnc1 | inconclusive: -64.2% |  |
| O=C(Nc1ccc2c(c1)OCCO2)c1cccc2nc3ccccc3nc12 | inconclusive: 4.35% |  |
| Cc1ccc2nc(COc3cccc(NC(=O)COc4ccccc4F)c3)cc(=O)n2c1 | inactive |  |
| CN(C)c1ccc(N=Nc2ccccc2C(=O)OCC(=O)NC2CCCC2)cc1 | inactive |  |

| SMILES | ratio change, negative = inhibition | Potency |
| --- | --- | --- |
| O=C(CN1CCN(Cc2ccccc2)CC1)c1ccccc1 | inactive |  |
| COc1cc(-c2nc(S(=O)(=O)c3ccccc3)c(N3CCOCC3)o2)cc(OC)c1OC | inactive |  |
| Oc1ccc(/C=N/Nc2nccnc2Cl)cc1 | inactive |  |
| COc1cccc(Nc2nc(NCCO)c3ccccc3n2)c1 | inactive |  |
| CCCc1nc2ccccc2c(C(=O)OCC(=O)NCc2ccco2)c1CC | inactive |  |
| Cc1ccc(S(=O)(=O)N2CCCC2C(=O)O)cc1 (stereo not given) | inactive |  |
| CCOC(=O)c1ccc(CC2S/C(=C(\C#N)C(C)=O)NC2=O)cc1 (stereo not given) | inconclusive: -31% |  |
| O=C(COc1cccc(Cl)c1)Nc1ccc(N2CCOCC2)cc1 | inactive |  |
| O=C(c1ccccc1Cl)N1N=C(c2ccc(Br)cc2)CC1c1nc2ccccc2[nH]1 (stereo not given) |  | inconclusive: 35.5 µM [cytotoxic, single point] |
| CCCCNC(=O)c1cc2c(=O)n3cccc(C)c3nc2n(CCN2CCOCC2)c1=N | inactive |  |
| COc1ccc2c(c1OC)OCC(c1ccc(OC)c(OC)c1OC)C2 (stereo not given) | inactive |  |
| N#CCSc1nnc(COc2cccc3ccccc23)n1-c1cccc(Cl)c1 | inconclusive: -20.1% |  |
| CC(C)c1nn2c(=O)cc(COC(=O)CNC(=O)c3ccccc3Cl)nc2s1 | inactive |  |
| Cc1sc2nc(SCC(=O)c3cc(C)n(CC4CCCO4)c3C)n(C(C)C)c(=O)c2c1C (stereo not given) | inconclusive: -35.6% |  |
| CCC(=O)OCCNc1cc(SCCC(=O)OC)c2nonc2c1[N+](=O)[O-] |  | inconclusive: 15.8 µM [inhibitor, single point] |
| CN(C)C(=O)c1ccc(-c2nc(NCc3cccs3)c3ccccc3n2)cc1 | inactive |  |
| CCCCC(=O)NC(=S)Nc1ccc(NC(=O)C(C)C)c(OC)c1 | inconclusive: 14.5% [at 46 µM] |  |
| N#Cc1c(-c2ccccc2)nc(-c2ccncc2)[nH]c1=O | inconclusive: 16.1% [at 46 µM] |  |
| COc1ccccc1-c1ccc(SCc2ccc([N+](=O)[O-])cc2)nn1 | inactive: 6.77% [at 1.84 µM] |  |
| O=C(c1oc2ccccc2c1CSCc1ccccc1)N1CCN(c2ncccn2)CC1 | inconclusive: -18.8% |  |
| Cc1csc(SC(C)C(=O)Nc2ccc3c(c2)OCCO3)n1 (stereo not given) | inconclusive: 0.236% [at 46 µM] |  |
| COc1ccc(CNC(=O)CN(c2ccc(OC)cc2)S(=O)(=O)c2c(C)nn(C)c2C)cc1 | inconclusive: 9.7% |  |
| Cc1ccc(S(=O)(=O)CCC(=O)N2CCN(c3ccc(Cl)cc3)CC2)cc1 |  | inconclusive: 35.5 µM [fluorescent, single point] |
| Cc1nc2ccc(C(=O)N3c4ccccc4CC3C)cc2s1 (stereo not given) | inactive |  |
| COCCNC(=O)COc1ccc(Br)cc1Cl | inactive |  |
| COc1ccc(/C=C2\SC(=O)N(CCC(=O)Nc3ccccc3)C2=O)cc1OC | inconclusive: 7.14% |  |
| CSc1ncc(C(=O)NCc2ccc(Cl)cc2)c(C(F)(F)F)n1 |  | inconclusive: 11.2 µM [activator, partial curve] |

Part of the list above in order of number of heavy atoms, ascending:

| SMILES | ratio change, negative = inhibition | Potency |
| --- | --- | --- |
| O=C1c2ccccc2S(=O)(=O)N1Cc1nnc(-c2ccccc2Br)o1 | inactive |  |
| CCC(=O)OCCNc1cc(SCCC(=O)OC)c2nonc2c1[N+](=O)[O-] |  | inconclusive: 15.8 µM [inhibitor, single point] |
| CN(C)c1ccc(N=Nc2ccccc2C(=O)OCC(=O)NC2CCCC2)cc1 | inactive |  |
| Cc1sc2nc(SCC(=O)c3cc(C)n(CC4CCCO4)c3C)n(C(C)C)c(=O)c2c1C (stereo not given) | inconclusive: -35.6% |  |
